The source of these data is article PMC7819943, “Rice protein-binding microarrays: a tool to detect cis-acting elements near promoter regions in rice”.

Sequences of proteins named here, by UniProt entry; tags and fusion partners are left off.
UniProt Q0JBA9, entry or part of it: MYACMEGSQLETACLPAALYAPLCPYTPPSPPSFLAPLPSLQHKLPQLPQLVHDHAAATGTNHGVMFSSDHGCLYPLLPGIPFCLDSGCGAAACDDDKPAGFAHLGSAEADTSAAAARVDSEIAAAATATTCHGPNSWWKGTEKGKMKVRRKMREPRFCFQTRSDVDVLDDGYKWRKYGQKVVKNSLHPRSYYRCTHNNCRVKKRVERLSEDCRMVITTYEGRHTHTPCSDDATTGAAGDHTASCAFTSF

The list shows a part of the results.

For the experiment, the target named is OsWRKY34 (Oryza sativa, UniProt Q0JBA9 1-250). The experiment can be described thus: protein-binding microarray (RPBM); PBS, 2% BSA, 51.3 ng/ul salmon testes DNA, 50 uM zinc acetate, 200 nM TF, 25 C, 1 h; high values mean tight binding. The settings on record: protein: recombinant; tags: N-terminal polyhistidine and DsRed monomer fusion (pET32a); label: CyDye5-dUTP incorporated in the synthesized complementary strand; 3' TTTTT single-stranded linker to array surface; dsDNA, one strand shown. Summed up: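 Transcription factors, each fused N-terminally to a polyhistidine tag and DsRed, were expressed in E. coli BL21-CodonPlus and purified on Ni–NTA. A custom Agilent array was made double-stranded by primer extension with Cy5-dUTP and blocked with 2% BSA. It was incubated with 200 nM protein in PBS, 2% BSA, salmon testes DNA and 50 µM zinc acetate at 25 °C for 1 h, then washed. The binding signal is per-feature fluorescence intensity (arbitrary units) read on an Axon 4000B scanner.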
Regarding “TCCTTACCATCACTGTCACCTTCCCTAGACACAACCGCCACGGAGTCACCTAGTGCAG”, the binding signal is 9800 fluorescence intensity (a.u.).
In the case of “CTACTCCCTCCATTTCGAAATGTTTGACACCGTTGACTTTCGGAGTCACCTAGTGCAG” it was 13900 fluorescence intensity (a.u.); in that of “GTGGTGGAACTAGGGTTTTTGCAATCTCAATCTCAATTCCCGGAGTCACCTAGTGCAG”, 9100 fluorescence intensity (a.u.).
Turning to “GCTTCCAAGGAATTTCTGGTTTGTACGCCTTATGCCTGAACGGAGTCACCTAGTGCAG”, the binding signal is 9080 fluorescence intensity (a.u.).
For “ACATGGTCTTTTGTTTTATATTTGGCACTTCTAATATATCCGGAGTCACCTAGTGCAG” the value was 9640 fluorescence intensity (a.u.); for “ACCCTAAAATTTGTGTCTGGACTATTTTCTCATCCAATCCCGGAGTCACCTAGTGCAG”, 8980 fluorescence intensity (a.u.).
For “ATGTTGTCGTGTATCATTTGTTTTTCTTATGTTATTTTCTCGGAGTCACCTAGTGCAG” the value was 10700 fluorescence intensity (a.u.); for “AAACCAACCCCACCCAACCCACGCGAGAACCGTGGACCACCGGAGTCACCTAGTGCAG”, 9500 fluorescence intensity (a.u.); for “GCCCTCGCCGTCGTCTCGTCTCGTCTCGCCCGCCTCCATGCGGAGTCACCTAGTGCAG”, 10100 fluorescence intensity (a.u.).
For “GAGGAGGGGATTGGGTGCTTGGAAAGCATGGCGCGGCAGTCGGAGTCACCTAGTGCAG” the value was 8850 fluorescence intensity (a.u.); for “CAGACCTGGAGGTTGTTGCCCTTGATGTGCGCCCAGATGACGGAGTCACCTAGTGCAG”, 8470 fluorescence intensity (a.u.).
Turning to “GTCAATTTCCTCAGGACCTATCCTGAACTCGCGTAGCGATCGGAGTCACCTAGTGCAG”, the binding signal was 8310 fluorescence intensity (a.u.).
In the case of “TTCCTTTCTTTGTGTGTTTTTAAGTTATAAAGTGAACTTGCGGAGTCACCTAGTGCAG” it was 10000 fluorescence intensity (a.u.); in that of “TTTCGGTTCATGTGCCACGATTGATCTACTCGATTGATATCGGAGTCACCTAGTGCAG”, 8860 fluorescence intensity (a.u.).
In the case of “CTTATAGGTCGTGTTGTGACCTGGCTTGCCACACCTAGATCGGAGTCACCTAGTGCAG” it was 8210 fluorescence intensity (a.u.); in that of “TGTGACTCTACATCAAACAATATCCATTTAAGTTTTTTTCCGGAGTCACCTAGTGCAG”, 8450 fluorescence intensity (a.u.); in that of “CTCGCCGCCGCCGCTCTTTGCTTCTGCACGTAGCATCCTCCGGAGTCACCTAGTGCAG”, 12200 fluorescence intensity (a.u.).
In the case of “TCTACTTTTCTCCACTCTTTTGCTATAGGGGCTGGGGTGGCGGAGTCACCTAGTGCAG” it was 14200 fluorescence intensity (a.u.); in that of “AATTATATTGTCTAGCTATTTTACATGTTATTTCTACTATCGGAGTCACCTAGTGCAG”, 10800 fluorescence intensity (a.u.); in that of “AAGCTTGGATTAGGTTGGTTGTGCGATGTGTATCTAAAGACGGAGTCACCTAGTGCAG”, 10700 fluorescence intensity (a.u.).
In the case of “AGACCTAATTACCACTACAGCCGCGACCTCGATTTTGTTTCGGAGTCACCTAGTGCAG”, the binding signal was 8260 fluorescence intensity (a.u.).
On to “GATTAGGGTTGTTGCCGGGGTTTGTTTGGTGTTGCGGCGGCGGAGTCACCTAGTGCAG”, for which the binding signal is 8510 fluorescence intensity (a.u.).
Regarding “CAATCTTGCCTTTTTCTTCTTGCTCATCGGTGGCCAATGCCGGAGTCACCTAGTGCAG”, the binding signal is 9990 fluorescence intensity (a.u.).
For “CGCACGGCCCCGTACCCGCGACCACCACCACCCGCCGCCGCGGAGTCACCTAGTGCAG” the value was 9300 fluorescence intensity (a.u.); for “TTAATTGCTATGTTTTGACCAGTCAACGCATAGGTCGTTTCGGAGTCACCTAGTGCAG”, 9120 fluorescence intensity (a.u.); for “GACTATACTACTTGAACTGTTGATTTATGCCATCATAATTCGGAGTCACCTAGTGCAG”, 9820 fluorescence intensity (a.u.).
Turning to “GAAATTTTTTGTTTCCATCCTTGGCTTGACTTTTAGAAGACGGAGTCACCTAGTGCAG”, the binding signal was 9730 fluorescence intensity (a.u.).
With “ACACCCTATTGTCAGCATCGTGAGATCATTATCTTTCTAACGGAGTCACCTAGTGCAG”, the binding signal was 11600 fluorescence intensity (a.u.).
For “TGCACTGTTTTTAGTGGATTTCTATGCTTGCTTTGTCCTCCGGAGTCACCTAGTGCAG” the value was 8520 fluorescence intensity (a.u.).
For “TTTTTTTCTCTTGTCCTTTCTCCACCGTTCTTCTCGTTCACGGAGTCACCTAGTGCAG” the value was 11000 fluorescence intensity (a.u.).
In the case of “GACCGGATTATTTTCACCTGCATGAGATCTTACGCCTACCCGGAGTCACCTAGTGCAG” it was 9390 fluorescence intensity (a.u.); in that of “TCTCTTATCTTCTTTTTCGCTTTTCTTCTTCTCTTTTCTCCGGAGTCACCTAGTGCAG”, 9800 fluorescence intensity (a.u.); in that of “AGTGAGGCGACAATGGCTCGTGGAGGGTGGGAGCAGTGGACGGAGTCACCTAGTGCAG”, 9270 fluorescence intensity (a.u.).
On to “AGATTGCTTTTCTTACAAGGACGACGCTAACAATAACATCCGGAGTCACCTAGTGCAG”, for which the binding signal is 9110 fluorescence intensity (a.u.).
In the case of “ACCCTCTCGCTTTTATGCTTACGCTTTTCAAACGGCTAAACGGAGTCACCTAGTGCAG” it was 9210 fluorescence intensity (a.u.); in that of “CTTAAAGGGTGGTACTTGGGTGGGAGTGCGTGGTTAGCTACGGAGTCACCTAGTGCAG”, 8430 fluorescence intensity (a.u.).
For “GAATTACGCTTTGGGCCACATTTTATTACCTATATTTCACCGGAGTCACCTAGTGCAG” the value was 8230 fluorescence intensity (a.u.); for “GCCATATTATTTTTCCTTTGTCCTAATTAATGTTAGAAATCGGAGTCACCTAGTGCAG”, 9440 fluorescence intensity (a.u.).
For “TACTTGCTTTGCTTTACTCTCTCATCAACTTTTTTTTTTCCGGAGTCACCTAGTGCAG” the value was 8470 fluorescence intensity (a.u.); for “GTTTTATCTGAAAAAAGCAAACAGAGGCTCTTCCAGTCATCGGAGTCACCTAGTGCAG”, 8020 fluorescence intensity (a.u.); for “CCATCTGACCCGTGCGTATCCACATGTGCCTACATATTTACGGAGTCACCTAGTGCAG”, 11100 fluorescence intensity (a.u.).
In the case of “CTCCTCCACTCCTCCTCTCTCCTCCGCCGCCGCGGCCATGCGGAGTCACCTAGTGCAG”, the binding signal was 8110 fluorescence intensity (a.u.).
